According to US9084422B2, “Anthranilamides compositions” (E I DU PONT DE NEMOURS AND COMPANY, priority 2001, dated 2015):
Some entries share one result that the patent states for a list of compounds.

Experiments:
Format in all cases: in vivo
[1] = tested on: tobacco budworm (Heliothis virescens); assay: Test C: control of tobacco budworm, foliar spray on cotton; conditions: sprayed at 50 ppm, 2-day-old larvae, assessed after 6 days
[2] = tested on: diamondback moth (Plutella xylostella); assay: Test A: control of diamondback moth, foliar spray on radish; conditions: sprayed at 50 ppm, neonate larvae, assessed after 6 days
[3] = tested on: tobacco budworm (Heliothis virescens); assay: Test I: alternative protocol, soil systemic control of tobacco budworm, excised cotton leaves; conditions: 3 mg of compound to soil surface per pot; upper leaves excised at 4 days after treatment; second instar larvae
[4] = tested on: fall armyworm (Spodoptera frugiperda); assay: Test B: control of fall armyworm, foliar spray on corn; conditions: sprayed at 50 ppm; corn (maize) plant; 1-day-old larvae; assessed after 6 days
[5] = tested on: fall armyworm (Spodoptera frugiperda); assay: Test J: soil systemic control of fall armyworm on corn, LC90; conditions: soil application 1 mL of test solution, second-instar larvae, mortality after four days, probit analysis
[6] = tested on: beet armyworm (Spodoptera exigua); assay: Test D: control of beet armyworm, foliar spray on corn; conditions: sprayed at 50 ppm, 1-day-old larvae, assessed after 6 days
[7] = tested on: boll weevil (Anthonomus g. grandis); assay: Test L: control of boll weevil on cotton; conditions: sprayed at 50 ppm; cotton plants; three days after infestation
[8] = tested on: silverleaf whitefly (Bemisia tabaci); assay: Test G: control of silverleaf whitefly on cotton; conditions: sprayed at 250 ppm; cotton plant; 2nd and 3rd instar nymphs; after 6 days
[9] = tested on: green peach aphid (Myzus persicae); assay: Test E: control of green peach aphid through contact and/or systemic means; conditions: sprayed at 250 ppm; radish plant; assessed after 6 days

Structure (SMILES)	feeding damage (excellent levels of plant protection) [1] [%]	feeding damage (excellent levels of plant protection) [2] [%]	mortality [3]	feeding damage (excellent levels of plant protection) [4] [%]	LC90 [5] [ppm]	feeding damage (excellent levels of plant protection) [6] [%]	feeding damage (excellent levels of plant protection) [7] [%]	mortality [8]	mortality [9]
Cc1cc(Cl)cc(C(=O)NC(C)C)c1NC(=O)c1cc(C(F)(F)F)nn1-c1ncccc1Cl [Compound 2]	≤ 10	≤ 10	greater than 70%	≤ 10	≤ 10	≤ 10	–	–	–
Cc1cc(Cl)cc(C(=O)NC(C)C)c1NC(=O)c1cc(Br)nn1-c1ncccc1Cl [Compound 27]	≤ 10	≤ 10	greater than 70%	≤ 10	–	≤ 10	≤ 10	–	–
CCNC(=O)c1cc(Cl)cc(Cl)c1NC(=O)c1cc(C(F)(F)F)nn1-c1ncccc1Cl [Compound 12]	≤ 10	≤ 10	–	≤ 10	≤ 10	≤ 10	–	–	–
Cc1cc(Br)cc(C(=O)NC(C)C)c1NC(=O)c1cc(C(F)(F)F)nn1-c1ncccc1Cl [Compound 1]	≤ 10	≤ 10	–	≤ 10	≤ 10	≤ 10	–	–	–
CC(C)NC(=O)c1cc(Br)cc(Br)c1NC(=O)c1cc(Br)nn1-c1ncccc1Cl [Compound 22]	≤ 10	≤ 10	–	≤ 10	≤ 10	≤ 10	–	–	–
CNC(=O)c1cc(Cl)cc(C)c1NC(=O)c1cc(C(F)(F)F)nn1-c1ncccc1Cl [Compound 4]	≤ 10	≤ 10	–	≤ 10	≤ 10	≤ 10	–	–	–
CC(C)(C)NC(=O)c1cc(Br)cc(Br)c1NC(=O)c1cc(C(F)(F)F)nn1-c1ncccc1Cl [Compound 6]	≤ 10	≤ 10	–	≤ 10	–	≤ 10	–	at least 80%	at least 80%
Cc1cc(Cl)cc(C(=O)NC(C)(C)C)c1NC(=O)c1cc(C(F)(F)F)nn1-c1ncccc1Cl [Compound 3]	≤ 10	≤ 10	–	≤ 10	–	≤ 10	–	at least 80%	at least 80%
CNC(=O)c1cc(Br)cc(C)c1NC(=O)c1cc(Br)nn1-c1ncccc1Cl [Compound 31]	≤ 10	≤ 10	–	≤ 10	≤ 10	≤ 10	–	–	–
CNC(=O)c1cc(F)cc(C)c1NC(=O)c1cc(Cl)nn1-c1ncccc1Cl [Compound 69]	≤ 10	≤ 10	–	≤ 10	–	≤ 10	–	–	–
Cc1cc(Br)cc(C(=O)NC(C)C)c1NC(=O)c1cc(Br)nn1-c1ncccc1Cl [Compound 16]	≤ 10	≤ 10	–	≤ 10	≤ 10	≤ 10	–	–	–
CCNC(=O)c1cc(F)cc(C)c1NC(=O)c1cc(Br)nn1-c1ncccc1Cl [Compound 66]	≤ 10	≤ 10	–	≤ 10	–	≤ 10	–	–	–
CNC(=O)c1cc(F)cc(C)c1NC(=O)c1cc(C(F)(F)F)nn1-c1ncccc1Cl [Compound 62]	≤ 10	≤ 10	–	≤ 10	–	≤ 10	–	–	–
CNC(=O)c1cc(I)cc(C)c1NC(=O)c1cc(Br)nn1-c1ncccc1Cl [Compound 55]	≤ 10	≤ 10	–	≤ 10	–	≤ 10	–	–	–
CC(C)NC(=O)c1cc(Br)cc(Br)c1NC(=O)c1cc(Cl)nn1-c1ncccc1Cl [Compound 42]	≤ 10	≤ 10	–	≤ 10	–	≤ 10	–	–	–
CC(C)NC(=O)c1cc(F)cc(Br)c1NC(=O)c1cc(Cl)nn1-c1ncccc1Cl [Compound 109]	≤ 10	≤ 10	–	≤ 10	–	≤ 10	–	–	–
CNC(=O)c1cc(Cl)cc(C)c1NC(=O)c1cc(Br)nn1-c1ncccc1Cl [Compound 20]	≤ 10	≤ 10	–	≤ 10	≤ 10	≤ 10	≤ 10	–	–
CNC(=O)c1cc(Cl)cc(Cl)c1NC(=O)c1cc(Br)nn1-c1ncccc1Cl [Compound 52]	≤ 10	≤ 10	–	≤ 10	–	≤ 10	–	–	–
CCNC(=O)c1cc(Cl)cc(Cl)c1NC(=O)c1cc(Cl)nn1-c1ncccc1Cl [Compound 49]	≤ 10	≤ 10	–	≤ 10	–	≤ 10	–	–	–
Cc1cc(F)cc(C(=O)NC(C)C)c1NC(=O)c1cc(Br)nn1-c1ncccc1Cl [Compound 67]	≤ 10	≤ 10	–	≤ 10	–	≤ 10	–	–	–
CCNC(=O)c1cc(F)cc(C)c1NC(=O)c1cc(Cl)nn1-c1ncccc1Cl [Compound 70]	≤ 10	≤ 10	–	≤ 10	–	≤ 10	–	–	–
Cc1cc(F)cc(C(=O)N(C)C)c1NC(=O)c1cc(Cl)nn1-c1ncccc1Cl [Compound 110]	≤ 10	≤ 10	–	≤ 10	–	≤ 10	–	–	–
CNC(=O)c1cc(F)cc(Cl)c1NC(=O)c1cc(C(F)(F)F)nn1-c1ncccc1Cl [Compound 103]	≤ 10	≤ 10	–	≤ 10	–	≤ 10	–	–	–
Cc1cc(C(F)(F)F)cc(C(=O)NC(C)C)c1NC(=O)c1cc(C(F)(F)F)nn1-c1ncccc1Cl [Compound 17]	≤ 10	≤ 10	–	≤ 10	–	≤ 10	–	–	–
CC(C)(C)NC(=O)c1cc(Br)cc(Cl)c1NC(=O)c1cc(C(F)(F)F)nn1-c1ncccc1Cl [Compound 29]	≤ 10	≤ 10	–	≤ 10	–	≤ 10	–	–	–
CCNC(=O)c1cc(Br)cc(C)c1NC(=O)c1cc(C(F)(F)F)nn1-c1ncccc1Cl [Compound 14]	≤ 10	≤ 10	–	≤ 10	≤ 10	≤ 10	–	–	–
CC(C)NC(=O)c1cc(F)cc(Br)c1NC(=O)c1cc(Br)nn1-c1ncccc1Cl [Compound 106]	≤ 10	≤ 10	–	≤ 10	–	≤ 10	–	–	–
CC(C)NC(=O)c1cc(Cl)cc(Cl)c1NC(=O)c1cc(Br)nn1-c1ncccc1Cl [Compound 25]	≤ 10	≤ 10	–	≤ 10	–	≤ 10	–	–	–
CC(C)NC(=O)c1cc(Cl)cc(Cl)c1NC(=O)c1cc(C(F)(F)F)nn1-c1ncccc1Cl [Compound 9]	≤ 10	≤ 10	–	≤ 10	≤ 10	≤ 10	–	–	–
